The values that follow come from article PMC5650320.

Protein sequences, listed by entry. Tags and fused reporters are not part of them. Lines headed by an entry give the natural chain unless they say otherwise; changes in a name come on top. Residues count along the entry.
UniProt P39905: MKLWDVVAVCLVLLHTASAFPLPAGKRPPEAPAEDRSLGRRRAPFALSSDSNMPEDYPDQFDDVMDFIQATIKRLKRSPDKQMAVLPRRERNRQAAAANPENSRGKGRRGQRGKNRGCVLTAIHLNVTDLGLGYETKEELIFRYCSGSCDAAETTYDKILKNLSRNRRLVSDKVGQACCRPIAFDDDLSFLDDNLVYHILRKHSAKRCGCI
UniProt Q99J86, residues 87-1432: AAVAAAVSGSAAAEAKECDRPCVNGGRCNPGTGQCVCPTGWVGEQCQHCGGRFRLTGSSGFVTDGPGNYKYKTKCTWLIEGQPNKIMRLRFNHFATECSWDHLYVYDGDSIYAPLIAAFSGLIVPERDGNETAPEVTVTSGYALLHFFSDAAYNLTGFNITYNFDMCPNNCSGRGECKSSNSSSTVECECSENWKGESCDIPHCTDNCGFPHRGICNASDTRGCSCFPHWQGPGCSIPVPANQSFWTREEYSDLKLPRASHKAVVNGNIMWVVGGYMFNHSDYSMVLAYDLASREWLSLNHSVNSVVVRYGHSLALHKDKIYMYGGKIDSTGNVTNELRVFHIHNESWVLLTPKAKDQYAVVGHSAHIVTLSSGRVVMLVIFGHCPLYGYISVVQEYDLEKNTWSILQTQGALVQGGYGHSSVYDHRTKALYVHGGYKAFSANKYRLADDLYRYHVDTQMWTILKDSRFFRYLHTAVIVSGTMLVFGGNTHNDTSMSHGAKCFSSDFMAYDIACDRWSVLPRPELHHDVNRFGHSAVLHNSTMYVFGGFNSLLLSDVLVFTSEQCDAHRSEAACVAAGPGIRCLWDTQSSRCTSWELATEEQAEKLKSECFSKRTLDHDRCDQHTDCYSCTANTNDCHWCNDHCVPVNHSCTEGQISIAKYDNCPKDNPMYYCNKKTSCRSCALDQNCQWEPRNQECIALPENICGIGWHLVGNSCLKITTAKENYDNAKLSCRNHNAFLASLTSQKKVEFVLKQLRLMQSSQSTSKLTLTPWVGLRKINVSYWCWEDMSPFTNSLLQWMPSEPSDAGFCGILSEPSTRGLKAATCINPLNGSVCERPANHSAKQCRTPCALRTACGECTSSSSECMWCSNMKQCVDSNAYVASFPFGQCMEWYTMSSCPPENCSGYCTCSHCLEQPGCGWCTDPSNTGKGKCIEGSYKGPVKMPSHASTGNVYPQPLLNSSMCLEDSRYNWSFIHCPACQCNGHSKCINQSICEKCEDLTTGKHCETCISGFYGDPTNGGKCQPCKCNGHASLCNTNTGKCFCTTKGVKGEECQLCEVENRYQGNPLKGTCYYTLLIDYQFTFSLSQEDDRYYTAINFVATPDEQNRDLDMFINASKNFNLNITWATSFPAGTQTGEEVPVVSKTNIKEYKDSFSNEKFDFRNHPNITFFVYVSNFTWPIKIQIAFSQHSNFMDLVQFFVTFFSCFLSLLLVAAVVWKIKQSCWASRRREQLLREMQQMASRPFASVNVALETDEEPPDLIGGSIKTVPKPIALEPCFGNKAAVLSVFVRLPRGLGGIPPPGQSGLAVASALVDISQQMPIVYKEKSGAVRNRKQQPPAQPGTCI
UniProt P13596, residues 20-858: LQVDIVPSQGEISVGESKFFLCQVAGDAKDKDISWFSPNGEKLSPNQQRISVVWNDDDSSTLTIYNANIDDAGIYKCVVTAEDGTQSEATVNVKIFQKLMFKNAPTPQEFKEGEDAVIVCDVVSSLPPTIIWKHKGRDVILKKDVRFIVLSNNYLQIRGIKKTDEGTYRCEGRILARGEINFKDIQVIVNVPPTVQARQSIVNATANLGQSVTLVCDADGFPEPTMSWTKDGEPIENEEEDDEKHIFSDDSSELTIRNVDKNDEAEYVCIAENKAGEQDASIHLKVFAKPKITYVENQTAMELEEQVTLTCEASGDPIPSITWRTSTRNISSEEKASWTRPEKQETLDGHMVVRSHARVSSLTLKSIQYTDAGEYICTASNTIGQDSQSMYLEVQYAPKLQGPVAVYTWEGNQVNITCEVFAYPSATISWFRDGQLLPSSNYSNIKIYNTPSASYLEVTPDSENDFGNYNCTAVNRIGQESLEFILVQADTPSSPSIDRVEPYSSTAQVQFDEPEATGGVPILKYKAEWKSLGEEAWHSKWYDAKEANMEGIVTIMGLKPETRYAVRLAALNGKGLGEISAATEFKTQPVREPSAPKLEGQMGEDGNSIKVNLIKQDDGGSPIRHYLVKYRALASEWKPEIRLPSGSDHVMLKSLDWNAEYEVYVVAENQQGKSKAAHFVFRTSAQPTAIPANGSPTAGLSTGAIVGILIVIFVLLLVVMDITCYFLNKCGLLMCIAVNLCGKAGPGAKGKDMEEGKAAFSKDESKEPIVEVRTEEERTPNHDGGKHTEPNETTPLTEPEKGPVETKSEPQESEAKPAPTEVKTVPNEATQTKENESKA

These are yes or no findings as the source states them, for the method shown. Binding seen in cells or lysates may run through a third protein. These calls come from enrichment with a bait or labelling near it, and not all partners need be listed.

The chains are these.
B1: neuropilin-2 (NRP2) (receptor, UniProt O35276 23-925)
chain: QQDPPCGGRLNSKDAGYITSPGYPQDYPSHQNCEWVVYAPEPNQKIVLNFNPHFEIEKHDCKYDFIEIRDGDSESADLLGKHCGNIAPPTIISSGSVLYIKFTSDYARQGAGFSLRYEIFKTGSEDCSKNFTSPNGTIESPGFPEKYPHNLDCTFTILAKPRMEIILQFLTFDLEHDPLQVGEGDCKYDWLDIWDGIPHVGPLIGKYCGTKTPSKLRSSTGILSLTFHTDMAVAKDGFSARYYLVHQEPPENFQCNAPLGMESGRIANEQISASSTFSDGRWTPQQSRLHGDDNGWTPNVDSNKEYLQVDLRFLTMLTAIATQGAISRETQKGYYVKSYKLEVSTNGEDWMVYRHGKNHKVFQANNDATELVLNKLHTPLLTRFIRIRPQTWHLGIALRLELFGCRVTDAPCSNMLGMLSGLIADTQISASSTREYLWSPSAARLVSSRSGWFPRNPQAQPGEEWLQVDLGTPKTVKGVIIQGARGGDSITAMEARAFVRKFKVSYSLNGKDWEYIQDPRTQQPKLFEGNMHYDTPDIRRFEPVPAQYVRVYPERWSPAGIGMRLEVLGCDWTDSKPTVETLGPTVKSEETTTPYPMDEDATECGENCSFEDDKDLQLPSGFNCNFDFPEETCGWMYDRAKWLQSTWISSANPNDRTFPDDKNFLKLQSDGGREGQFGRLISPPVHLPRSPVCMEFQYQAMGGHGVALQVVREARQESKLLWVIREDQGSEWKHGRIILPSYDMEYQIVFEGVIGKGRSGEISIDDIRISTDVPLENCMEPISAFAVDIPEIHGGEGYEDEIDDDYEGDWNNSSSTSGAGSPSSGKEKSWLYTLDPILITIIAMSSLGVLLGATCAGLLLYCTCSYSGLSSRSCTTLENYNFELYDGLKHKVKINHQKCCSEA

For this test, the target named is glutathione S-transferase tagged GDNF (GST-GDNF) (UniProt P39905). Briefly: affinity purification with mass spectrometry; GST pull-down: membrane proteins of C6 rat glioma cells or primary rat astrocytes in PBS mixed with 15 ug GST-GDNF (or 5 ug GST alone), 1 h at 4°C, GST beads overnight at 4°C, washed thrice with PBS, eluted with 50 mM glutathione in 50 mM Tris pH 8.1; SDS-PAGE, in-gel trypsin digest, LC-MS/MS; hits picked by bioinformatics (GO, PANTHER); only the target purified.
Consider “Attractin (ATRN) (from UniProt Q99J86 87-1432)”, for which the binding entry was “binds”.
The result for “neural cell adhesion molecule (NCAM1) (from UniProt P13596 20-858) (receptor)” reads “binds”; that for “neuropilin-1 (NRP1) (from UniProt Q9QWJ9 22-922) (receptor)”, “binds”.
Under B1 stands “binds”.
